PubChem BioAssay AID2551 (National Center for Advancing Translational Sciences (NCATS), 2010)
Out of some 310,000 compounds screened, about 17,000 (5.5%) were called active. Inconclusive means that the source gave no clear call. Such entries were picked first, then a sample of the others. Calls come from the whole dose curve; as a rule, active = well fitted inhibition curve with a large enough effect; inconclusive = small, poorly fitted or top-dose-only effect, or effect the other way; inactive = no such curve, though single readings can be large or run the other way. Potencies beside an inconclusive call are fits to weak or partial responses and may not hold up. Some structures have more than one record in an assay (separate samples or runs), and their calls can disagree.

Amino acid sequences for entries named in this document (tags omitted). A change or cut given only in a name is not applied to a line headed by its entry.
UniProt P51450: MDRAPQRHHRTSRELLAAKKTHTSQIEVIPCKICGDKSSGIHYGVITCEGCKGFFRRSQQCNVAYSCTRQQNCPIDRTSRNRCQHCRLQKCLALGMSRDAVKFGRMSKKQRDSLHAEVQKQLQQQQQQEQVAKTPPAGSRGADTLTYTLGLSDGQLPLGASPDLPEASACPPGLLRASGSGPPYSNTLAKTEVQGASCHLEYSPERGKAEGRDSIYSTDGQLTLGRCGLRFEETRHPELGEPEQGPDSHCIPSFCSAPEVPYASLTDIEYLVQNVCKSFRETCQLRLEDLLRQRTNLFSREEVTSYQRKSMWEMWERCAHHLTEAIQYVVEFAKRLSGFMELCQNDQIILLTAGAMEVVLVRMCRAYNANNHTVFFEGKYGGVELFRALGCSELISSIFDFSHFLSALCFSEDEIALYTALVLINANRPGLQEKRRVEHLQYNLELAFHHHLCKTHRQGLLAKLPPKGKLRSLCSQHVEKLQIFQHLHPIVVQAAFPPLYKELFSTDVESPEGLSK

Molecular target: Nuclear receptor ROR-gamma (Mus musculus) (UniProt P51450)
Test: qHTS for inhibitors of ROR gamma transcriptional activity; note: nearly all actives have a fitted effect of over 60% in size
Conditions: Drosophila S2 Gal4-RORgamma UAS-luciferase reporter, 20 h; activity change, negative = inhibition: at 53.6 µM (top of the series)
Summary of the method: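 Luciferase reporter read in Schneider cells carrying Gal4-RORγ (mouse) and UAS-Photinus luciferase; cells given compound 1 h before 700 uM copper sulfate induction, then incubated 20 h at ambient temperature.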
% is set by controls: 0 for no effect and ±100 for the full control effect; potency is the fitted concentration of half-maximal effect.

SMILES | Potency | activity change, negative = inhibition
CC(=O)O[C@H]1C2[C@@H](OC(=O)Cc3ccccc3)[C@@H](C)C[C@]2(OC(C)=O)C(=O)/C(C)=C/[C@@H]2[C@H](CC[C@@]13CO3)C2(C)C (some centres undefined) | inconclusive: 31.6 µM [activator, single point] | 
COC(=O)Cn1cc(/C=C2\C(=O)NC(=O)N(c3ccc(OC)cc3)C2=O)c2ccccc21 | inconclusive: 10 µM [activator, partial curve] | 
COc1cccc(N2C(=O)NC(=O)/C(=C\c3ccc([N+](=O)[O-])s3)C2=O)c1 | inconclusive: 15.8 µM [inhibitor, single point] | 
Cc1ccc(NC(=O)CN(C)CC(=O)Nc2cccc(F)c2)cc1[N+](=O)[O-] | inconclusive: 22.4 µM [inhibitor, single point] | 
O=C1C=C2C=C[C@H]3C[C@@]2(O1)[C@H]1CCCCN31 | inconclusive: 14.1 µM [inhibitor, single point] | 
S=c1[nH]nc(-c2ccco2)n1-c1cccc2ccccc12 | active: 7.94 µM | 
O=C(Nc1ccccc1[N+](=O)[O-])c1ccc(S(=O)(=O)N2CCCC2)cc1 | inconclusive: 20 µM [activator, single point] | 
CCCCCn1c(=O)c(C(=O)NCCc2ccccc2)c(O)c2ccccc21 | inconclusive: 17.8 µM [inhibitor, single point] | 
CC(=O)OC[C@]12CCC(C)=C[C@H]1O[C@@H]1[C@H](O)[C@@H](OC(C)=O)[C@@]2(C)[C@]12CO2 | active: 0.0316 µM | 
O=c1ccc2cc(OC3OC(CO)C(O)C(O)C3O)c(O)cc2o1 (centres undefined) | inconclusive: 14.1 µM [activator, single point] | 
Nc1ccccc1C(=O)OCC(=O)Nc1ccc(Br)cc1F | inconclusive: 35.5 µM [activator, single point] | 
Cc1cc(C)cc(NC(=S)NC2CC3CCC(C2)N3Cc2ccco2)c1 (centres undefined) | inconclusive: 20 µM [inhibitor, partial curve, poor fit] | 
COc1ccccc1OP(=O)(Nc1ccc(Br)cc1)Oc1ccccc1OC | inconclusive: 31.6 µM [activator, single point] | 
CC12CN3CC(c4ccccc4)(CN(C1)C31CCCCC1)C2=O |  | inactive: 5.09%
COc1ccc(NC(=O)N2CC[C@@]3(CCCN(C(=O)Oc4ccccc4)C3)C2)cc1 |  | inactive: 3.66%
Cc1ccc(/C(CSc2nccn2-c2ncc(C(F)(F)F)cc2Cl)=N\O)cc1 | inconclusive: 12.6 µM [activator, partial curve, poor fit] | 
CC[C@@H](CO)NC(=O)[C@@H]1C=C2c3cccc4c3c(cn4C)C[C@H]2N(C)C1 | active: 17.8 µM | 
CN1C(=O)C(Cc2ccc3c(c2)OCO3)C(=O)N(C)C1=O |  | inactive: -17.3%
NC(CO)Cc1ccccc1 (centres undefined) |  | inactive: 0.864%
Cc1[nH]n(-c2ccccc2)c(=O)c1C(c1cccc([N+](=O)[O-])c1O)c1c(C)[nH]n(-c2ccccc2)c1=O | inconclusive: 35.5 µM [inhibitor, single point] | 
O=C(O)C(F)(F)S(=O)(=O)O | inconclusive: 6.31 µM [inhibitor, partial curve, poor fit] | 
COC1=CC(=O)O[C@@H](/C=C/c2ccc3c(c2)OCO3)C1 | inconclusive: 0.126 µM [inhibitor, full curve, poor fit] | 
Cc1ccc(/C=C2\C(=O)NC(=S)N(c3ccccc3F)C2=O)s1 | inconclusive: 35.5 µM [inhibitor, single point] | 

SMILES | Potency | activity change, negative = inhibition
N#CC(C#N)=NNc1cccc(Cl)c1 | active: 1.12 µM | 
COC(=O)C(O)(c1ccc(NC(=S)NC(=O)c2ccc(Cl)cc2Cl)cc1)C(F)(F)F (centres undefined) | active: 5.01 µM | 
O=c1oc2ccccc2c(O)c1[C@H]1c2ccc(O)cc2Oc2c1c(=O)oc1ccccc21 |  | inactive: -24.5%
C=C(CC1(CNP(=O)(c2ccccc2)c2ccccc2)CC1)c1ccccc1 |  | inactive: 20.8%
CCN1C(=O)C(=C2C=C(C)OC(C)=C2)C(=O)N(CC)C1=S |  | inactive: 18.2%
Cc1ccc(C)c(CN2CCC(n3nnc4cc(F)ccc43)CC2)c1 |  | inactive: 22%
CCCCCCCC(=O)NC(Oc1ccccc1[N+](=O)[O-])C(Cl)(Cl)Cl (centres undefined) | inconclusive: 31.6 µM [activator, single point] | 
O=C(Nc1ncc(Cc2ccccc2)s1)C1=NCCN1 | active: 2 µM | 
Cc1cc(C)n(CCOC(=O)C2C(C=C(Cl)Cl)C2(C)C)n1 (centres undefined) | inconclusive: 35.5 µM [inhibitor, single point] | 
Cc1nc2ccc(N3CCN(C)CC3)cc2nc1C | inconclusive: 22.4 µM [inhibitor, partial curve, poor fit] | 
Oc1c(Br)cc(Br)cc1Oc1ccc(Br)cc1Br | inconclusive: 20 µM [activator, single point] | 
COC(=O)[C@@]1(O)C[C@@H]2O[C@@]1(C)n1c3ccccc3c3c4c(c5c6ccccc6n2c5c31)C(=O)NC4 |  | inactive: -16.5%
Oc1cc(Cl)c(Cl)cc1Cl | inconclusive: 35.5 µM [activator, single point] | 
C/C=C(/C)C(=O)O[C@H]1C(C)=C2[C@H]([C@@H]1OC(=O)CCCCCCC)[C@@](C)(OC(C)=O)C[C@H](OC(=O)CCC)[C@@]1(O)[C@H]2OC(=O)[C@@]1(C)O | inconclusive: 35.5 µM [inhibitor, single point] | 
COc1c(C)cc(C(=O)C2CCCN(Cc3ccccn3)C2)cc1C (centres undefined) | active: 2 µM | 
CCCCC(CC)COC(=O)c1ccc(C(=O)OCC(CC)CCCC)c(C(=O)OCC(CC)CCCC)c1 (centres undefined) |  | inactive: 0.898%
CCCCCC[C@H]1C(=O)O[C@H](C)[C@H](NC(=O)c2cccc(NC=O)c2O)C(=O)O[C@@H](C)[C@@H]1OC(=O)CC(C)C | inconclusive: 44.7 µM [inhibitor, partial curve, poor fit] | 
COC1=CC(=O)O[C@H](/C=C/c2ccc3c(c2)OCO3)C1 |  | inactive: 2.1%
COc1ccc(N2CCN(C(=O)c3cc(=O)[nH]c4ccccc34)CC2)cc1 | inconclusive: 7.08 µM [activator, partial curve] | 
CN(C)C(=O)Oc1ccc(OCc2nc3ccccc3[nH]2)cc1 | inconclusive: 5.01 µM [inhibitor, full curve, poor fit] | 
CC1OC(O[C@@H]2C(O)CC(O[C@@H]3C(O)C[C@@H](OC4CC[C@]5(C)[C@H](CC[C@H]6[C@@H]5CC[C@]5(C)C(C7=CC(=O)OC7)C(O)C[C@@]65O)C4)OC3C)OC2C)CC(O)C1O (some centres undefined) | active: 2.24 µM | 
CC12CC[C@H]3[C@@H](CCC4(O)C[C@H](O)CCC34/C=N/NC(=O)c3ccc(O)cc3)C1(O)CCC2C1=CC(=O)OC1 (some centres undefined) | active: 8.91 µM | 

SMILES | Potency | activity change, negative = inhibition
CCOc1cccc(OCC)c2c(C)[n+](CC3CCCO3)c(C)c1-2 (centres undefined) |  | inactive: -18%
c1ccc2c(c1)OCC(C1=NCCN1)O2 (centres undefined) | active: 15.8 µM | 
CCc1ccc(NP(=O)(Oc2ccccc2F)Oc2ccccc2F)cc1 | inconclusive: 14.1 µM [activator, single point] | 
N#Cc1c(Cl)c(Cl)c(Cl)c(C#N)c1Cl | active: 2.51 µM | 
Cn1c(O)c(C2=NN(C(=O)CCl)C(c3ccccc3)C2)c(=O)n(C)c1=O (centres undefined) | inconclusive: 25.1 µM [inhibitor, single point] | 
O=C(N/N=C/c1c(O)n(-c2ccccc2)c(=S)[nH]c1=O)c1ccccc1 | active: 7.94 µM | 
O=C(c1cc(-c2ccc(Cl)cc2)n(-c2ccc(Cl)cc2Cl)n1)N1CCOCC1 | inconclusive: 35.5 µM [inhibitor, single point] | 
CC(C)(C)P(=O)(NCc1ccccc1)c1ccccc1 (centres undefined) |  | inactive: -10.2%
O=C1CCCN1C(=O)c1cncc(Br)c1 |  | inactive: -24.3%
COc1ccc(-n2c(CN3CCOCC3)nc3ccccc3c2=O)c(OC)c1 |  | inactive: -36.1% [at 1.91 µM]
CCN(CC)C(=O)c1ccc(NC(=O)Nc2ccccc2F)cc1 | active: 11.2 µM | 
Cc1ccccc1-n1c(O)c(/C=N/NC(=O)c2ccccc2O)c(=O)[nH]c1=S | inconclusive: 20 µM [inhibitor, single point] | 
Cc1cc(C)cc(OP(=O)(Oc2cc(C)cc(C)c2)Oc2cc(C)cc(C)c2)c1 |  | inactive: -4.39%
Nn1c(COc2ccc(Cl)cc2)n[nH]c1=S | inconclusive: 2.82 µM [inhibitor, partial curve] | 
O=C(O)c1cc(O)c(O)c(O)c1 | active: 10 µM | 
Cc1cc(OC(=O)CCCNC(=O)OC(C)(C)C)c2c3c(c(=O)oc2c1)CCC3 | inconclusive: 11.2 µM [activator, partial curve] | 
CC1OC(OC2C(O)CC(OC3C(O)CC(OC4CCC5(C)C(CCC6C5CCC5(C)C(C7=CC(=O)OC7)CCC65O)C4)OC3C)OC2C)CC(O)C1O (centres undefined) | active: 1.12 µM | 
CCOC(=O)c1c(C)n(Cc2ccccc2)c2ccc(OCC(O)CNC(C)(C)C)cc12 (centres undefined) | inconclusive: 22.4 µM [inhibitor, single point] | 
CN1C(=O)NC(=O)[C@]2(Cc3ccccc3N3CCN(c4ccccc4)CC32)C1=O (some centres undefined) | inconclusive: 17.8 µM [activator, single point] | 
CCOP(=O)(OCC)c1nc(-c2ccc(C)cc2)oc1NCc1ccccc1 | inconclusive: 25.1 µM [activator, single point] | 
Cc1ccc2c(c1)c(C1=c3ccccc3=NC1=O)c(O)n2C | active: 7.08 µM | 
C=CCc1ccc(OCCn2nnc3ccccc32)c(OC)c1 | inconclusive: 3.98 µM [activator, full curve] | 
CCc1cc2c(s1)NC(=O)CN=C2c1cccs1 |  | inactive: 0% [at 10 µM]

5 of the compounds above, with tabs.
SMILES	Potency	activity change, negative = inhibition
COc1cccc(N2C(=O)NC(=O)/C(=C\c3ccc([N+](=O)[O-])s3)C2=O)c1	inconclusive: 15.8 µM [inhibitor, single point]	
COc1c(C)cc(C(=O)C2CCCN(Cc3ccccn3)C2)cc1C (centres undefined)	active: 2 µM	
COC1=CC(=O)O[C@H](/C=C/c2ccc3c(c2)OCO3)C1		inactive: 2.1%
CCOc1cccc(OCC)c2c(C)[n+](CC3CCCO3)c(C)c1-2 (centres undefined)		inactive: -18%
CCc1ccc(NP(=O)(Oc2ccccc2F)Oc2ccccc2F)cc1	inconclusive: 14.1 µM [activator, single point]	

2 entries picked at random from those above:
SMILES | Potency | activity change, negative = inhibition
O=C(c1cc(-c2ccc(Cl)cc2)n(-c2ccc(Cl)cc2Cl)n1)N1CCOCC1 | inconclusive: 35.5 µM [inhibitor, single point] | 
CC1OC(OC2C(O)CC(OC3C(O)CC(OC4CCC5(C)C(CCC6C5CCC5(C)C(C7=CC(=O)OC7)CCC65O)C4)OC3C)OC2C)CC(O)C1O (centres undefined) | active: 1.12 µM | 
